According to patent US7368424B2 (AiCuris GmbH & Co. KG, priority 2003, dated 2008):

assay: peptide synthesis; conditions: coupling step, trifluoroacetate

| Substance | step yield |
| --- | --- |
| N-{3-[(tert-Butoxycarbonyl)amino]propionyl}-de(leucyl)lysobactin monotrifluoroacetate | 40% of theory |
| N-{6-[(tert-Butoxycarbonyl)amino]hexanoyl}-de(leucyl)lysobactin monotrifluoroacetate | 18% of theory |
| {4-[(tert-Butoxycarbonyl)amino]butanoyl}-de(leucyl)lysobactin monotrifluoroacetate | 59% of theory |
| N-tert-Butoxycarbonyl-3-tert-butyl-D-alanyl-3-tert-butyl-L-alanyl-de(1-D-leucyl-2-L-leucyl)-lysobactin trifluoroacetate | 95% of theory |
| N-(tert-Butoxycarbonyl)-N-methyl-lysobactin monotrifluoroacetate | 40% of theory |
| N-Boc-3-tert-butyl-D-alanyl-3-(3-pyridyl)-L-alanyl-de(1-D-leucyl-2-L-leucyl)lysobactin | 80% of theory |
| N-({1-[(tert-Butoxycarbonyl)amino]cyclopropyl}carbonyl)-de(leucyl)lysobactin monotrifluoroacetate | 13% of theory |

same assay, conditions: late stage modification step, trifluoroacetate

| Substance | step yield |
| --- | --- |
| N^2-({1-Aminocyclopropyl}carbonyl)-N^1-{(3S,6S,12S,15S,18R,21S,24S,27S,28R)-6-[(1S)-2-amino-1-hydroxy-2-oxoethyl]-18-(3-{[amino(imino)methyl]amino}propyl)-12-[(1S)-1-hydroxyethyl]-3-(hydroxymethyl)-24-[(1R)-1-hydroxy-2-methylpropyl]-21-isobutyl-15-[(1S)-1-methylpropyl]-2,5,8,11,14,17,20,23,26-nonaoxo-28-phenyl-1-oxa-4,7,10,13,16,19,22,25-octaazacyclooctacosan-27-yl}-L-leucinamide bistrifluoroacetate | 50% of theory |
| 3-Amino-N-[(benzyloxy)carbonyl]-L-alanyl-N^1-{(3S,6S,12S,15S,18R,21S,24S,27S,28R)-6-[(1S)-2-amino-1-hydroxy-2-oxoethyl]-18-(3-{[amino(imino)methyl]amino}propyl)-12-[(1S)-1-hydroxyethyl]-3-(hydroxymethyl)-24-[(1R)-1-hydroxy-2-methylpropyl]-21-isobutyl-15-[(1S)-1-methylpropyl]-2,5,8,11,14,17,20,23,26-nonaoxo-28-phenyl-1-oxa-4,7,10,13,16,19,22,25-octaazacyclooctacosan-27-yl}-L-leucinamide bistrifluoroacetate | 65% of theory |
| 3-tert-Butyl-D-alanyl-3-(3-pyridyl)-L-alanyl-de(1-D-leucyl-2-L-leucyl)lysobactin tristrifluoroacetate | 59% of theory |
| N^2-(3-Aminopropionyl)-N^1-{(3S,6S,12S,15S,18R,21S,24S,27S,28R)-6-[(1S)-2-amino-1-hydroxy-2-oxoethyl]-18-(3-{[amino(imino)methyl]amino}propyl)-12-[(1S)-1-hydroxyethyl]-3-(hydroxymethyl)-24-[(1R)-1-hydroxy-2-methylpropyl]-21-isobutyl-15-[(1S)-1-methylpropyl]-2,5,8,11,14,17,20,23,26-nonaoxo-28-phenyl-1-oxa-4,7,10,13,16,19,22,25-octaazacyclooctacosan-27-yl}-L-leucinamide bistrifluoroacetate | 11% of theory |
| L-Leucyl-N^1-{(3S,6S,12S,15S,18R,21S,24S,27S,28R)-6-[(1S)-2-amino-1-hydroxy-2-oxoethyl]-18-(3-{[amino(imino)methyl]amino}propyl)-12-[(1S)-1-hydroxyethyl]-3-(hydroxymethyl)-24-[( 1R)-1-hydroxy-2-methylpropyl]-21-isobutyl-15-[(1S)-1-methylpropyl]-2,5,8,11,14,17,20,23,26-nonaoxo-28-phenyl-1-oxa-4,7,10,13,16,19,22,25-octaazacyclooctacosan-27-yl}-L-leucinamide bistrifluoroacetate | 42% of theory |
| 3-tert-Butyl-D-alanyl-N^1-{(3S,6S,12S,15S,18R,21S,24S,27S,28R)-6-[(1S)-2-amino-1-hydroxy-2oxoethyl]-18-(3-{[amino(imino)methyl]amino}propyl)-12-[(1S)-1-hydroxyethyl]-3-(hydroxymethyl)-24-[(1R)-1-hydroxy-2-methylpropyl]-21-isobutyl-15-[(1S)-1-methylpropyl]-2,5,8,11,14,17,20,23,26-nonaoxo-28-phenyl-1-oxa-4,7,10,13,16,19,22,25-octaazacyclooctacosan-27-yl}-3-tert-butyl-L-alaninamide bistrifluoroacetate | 73% of theory |
| N^2-(4-Aminobutanoyl)-N^1-{(3S,6S,12S,15S,18R,21S,24S,27S,28R)-6-[(1S)-2-amino-1-hydroxy-2-oxoethyl]-18-(3-{[amino(imino)methyl]amino}propyl)-12-[(1S)-1-hydroxyethyl]-3-(hydroxymethyl)-24-[(1R)-1-hydroxy-2-methylpropyl]-21-isobutyl-15-[(1S)-1-methylpropyl]-2,5,8,11,14,17,20,23,26-nonaoxo-28-phenyl-1-oxa-4,7,10,13,16,19,22,25-octaazacyclooctacosan-27-yl}-L-leucinamide bistrifluoroacetate | 35% of theory |

same assay, conditions: late stage modification step, trifluoroacetate; run 1

| Substance | step yield |
| --- | --- |
| De(1-D-leucyl-2-L-leucyl)lysobactin bistrifluoroacetate | 75% of theory |

same assay, conditions: late stage modification step, trifluoroacetate; run 2

| Substance | step yield |
| --- | --- |
| De(1-D-leucyl-2-L-leucyl)lysobactin bistrifluoroacetate | 32% of theory |
